Assay results taken from paper PMC12767855.
No constants are given. Whether binding was seen depends on the method and setting. Binding seen in cells or lysates may run through a third protein. Some binding calls cover weakened binding; strength is not graded here.

T1: Par3L expressed in HEK293T cells (UniProt Q8TEW8)
T1 sequence: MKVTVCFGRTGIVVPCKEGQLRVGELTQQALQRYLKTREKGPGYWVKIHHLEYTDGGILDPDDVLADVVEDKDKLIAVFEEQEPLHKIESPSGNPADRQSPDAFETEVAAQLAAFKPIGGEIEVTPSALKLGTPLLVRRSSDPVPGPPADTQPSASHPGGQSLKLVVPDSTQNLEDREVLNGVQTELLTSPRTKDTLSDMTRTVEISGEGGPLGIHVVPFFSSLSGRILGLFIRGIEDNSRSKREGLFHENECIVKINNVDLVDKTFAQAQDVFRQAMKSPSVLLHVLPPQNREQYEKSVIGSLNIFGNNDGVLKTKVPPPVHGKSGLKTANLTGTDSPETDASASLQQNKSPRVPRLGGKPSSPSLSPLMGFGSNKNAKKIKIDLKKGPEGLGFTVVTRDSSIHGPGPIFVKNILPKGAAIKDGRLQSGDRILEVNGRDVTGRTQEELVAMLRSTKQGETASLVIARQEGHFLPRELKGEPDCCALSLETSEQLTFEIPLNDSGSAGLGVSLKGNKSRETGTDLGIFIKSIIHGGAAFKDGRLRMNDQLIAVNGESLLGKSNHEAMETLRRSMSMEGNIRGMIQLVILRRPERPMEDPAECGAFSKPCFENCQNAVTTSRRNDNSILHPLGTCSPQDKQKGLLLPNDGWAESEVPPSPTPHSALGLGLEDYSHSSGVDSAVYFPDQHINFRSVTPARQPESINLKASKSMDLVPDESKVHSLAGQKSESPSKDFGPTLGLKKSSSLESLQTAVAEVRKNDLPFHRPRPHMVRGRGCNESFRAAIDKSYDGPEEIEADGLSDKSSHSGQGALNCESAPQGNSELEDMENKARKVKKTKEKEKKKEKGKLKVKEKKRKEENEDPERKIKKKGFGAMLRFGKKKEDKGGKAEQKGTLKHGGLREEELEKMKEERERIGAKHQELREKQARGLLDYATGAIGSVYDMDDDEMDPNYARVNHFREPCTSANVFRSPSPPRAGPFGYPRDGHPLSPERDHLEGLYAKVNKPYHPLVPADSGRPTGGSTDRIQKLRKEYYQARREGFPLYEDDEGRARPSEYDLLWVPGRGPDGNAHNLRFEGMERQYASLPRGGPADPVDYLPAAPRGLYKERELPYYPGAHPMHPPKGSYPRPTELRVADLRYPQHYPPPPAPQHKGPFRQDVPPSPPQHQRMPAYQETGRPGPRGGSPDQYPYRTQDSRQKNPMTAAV

B1: Fip1L1 expressed in HEK293T cells (protein, UniProt Q9D824 1-581)
chain: MSAGEVERLVELSGGTGGDEEEEWLYGGPWDVHVHSDLAKDLDENEVERPEEENASANPPSGIEEEAAENGVAKPKVTETEDDSDSDSDDDEDDVHVTIGDIKTGAPQYGSYGTAPVNLNIKAGGRVYGNTGTKVKGVDLDAPGSINGVPLLEVDLDSFEDKPWRKPGADLSDYFNYGFNEDTWKAYCEKQKRIRMGLEVIPVTSTTNKITVQQGRTGNSEKEAALPSTKAEFTSPPSLFKTGLPPSRNSTSSQSQTSTASRKASSSVGKWQDRYGRAESPDLRRLPGAIDVIGQTITISRVEGRRRANENSNIQVLSDRSATEVDNNFSKPPPFFPPGAPPTHLPPPPFLPPPPTVSTAPPLIPPPGIPITVPPPGFPPPPGAPPPSLIPTIESGHSSGYDSRSARAFPYGNVAFPHLTSSAPSWPSLVDTTKQWDYYARREKDRDRDRERDRDRERERDRDRERERTRERERERDHSPTPSVFNSDEERYRYREYAERGYERHRASREKEERHRERRHREKEETRHKSSRSNSRRRHESEEGDSHRRHKHKKSKRSKEGKEAGSEPVPEQESTEAAPAE
B2: Cpsf7 expressed in HEK293T cells (protein, UniProt Q8BTV2 1-471)
chain: MSEGVDLIDIYADEEFNQDSEFNNTDQIDLYDDVLTAASQPSDDRSSSTEPPPPVRQEPAPKPNNKTPAILYTYSGLRSRRAAVYVGSFSWWTTDQQLIQVIRSIGVYDVVELKFAENRANGQSKGYAEVVVASENSVHKLLELLPGKVLNGEKVDVRPATRQNLSQFEAQARKRECVRVPRGGIPPRAHSRDSSDSADGRATPSENLVPSSARVDKPPSVLPYFNRPPSALPLMGLPPPPIPPPPPLSSSFGVPPPPPGIHYQHLMPPPPRLPPHLAVPPPGAIPPALHLNPAFFPPPNATVGPPPDTYMKASTPYNHHGSRDSGPPPSTVSEAEFEEIMKRNRAISSSAISKAVSGASAGDYSDAIETLLTAIAVIKQSRVANDERCRVLISSLKDCLHGIEAKSYSVGASGSSSRKRHRSRERSPSRSRESSRRHRDLLHNEDRHDDYFQERNREHERHRDRERDRHH
B3: Mbnl2 expressed in HEK293T cells (protein, UniProt Q8C181 1-373)
chain: MALNVAPVRDTKWLTLEVCRQYQRGTCSRSDEECKFAHPPKSCQVENGRVIACFDSLKGRCSRENCKYLHPPTHLKTQLEINGRNNLIQQKTAAAMLAQQMQFMFPGTPLHPVPTFPVGPTIGTNAAISFAPYLAPVTPGVGLVPTEVLPTTPVIVPGSPPVTVPGSTATQKLLRTDKLEVCREFQRGNCARGETDCRFAHPADSTMIDTNDNTVTVCMDYIKGRCMREKCKYFHPPAHLQAKIKAAQHQANQAAVAAQAAAAAATVMTQSTAKALKRPLEATVDLAFPPGALHPLPKRQALEKSNGASTVFNPSVLHYQQALTSAQLQQHTAFIPTVPMMHSATSATVSAATTPATSVPFAATATANQIILK

target: T1, Par3L expressed in HEK293T cells; assay: co-IP; Co-IP analysis of Par3L in HEK293T cells; conditions not given

binding	Binder
binds	B1
binds	B2
binds	B3
